Reference: patent US20260207765A1, “COVALENTLY-MODIFIED STEROID ACID-PEPTIDES HAVING ENHANCED STABILITY AND/OR BIOLOGICAL ACTIVITY” (priority 2022, published 2026)
Part of at least one peptide drawing is inferred or uncertain, most often the ends. Positions of bridges follow the written chain, without caps; N, C: chain ends. Residues, ends and D or L forms follow the SMILES beside them. Chains are numbered I, II in the order given. *: point of attachment. Chenodeoxycholyl = C[C@H](CCC(=O)*)[C@H]1CC[C@H]2[C@@H]3[C@H](O)C[C@@H]4C[C@H](O)CC[C@]4(C)[C@H]3CC[C@]12C; Cholyl = C[C@H](CCC(=O)*)[C@H]1CC[C@H]2[C@@H]3[C@H](O)C[C@@H]4C[C@H](O)CC[C@]4(C)[C@H]3C[C@H](O)[C@]12C

How the values were obtained:
EL4 lymphoma cells [1] = assay: Apoptosis analysis / kill curve by flow cytometry (Annexin-V, PI); type: cell-based, mouse; settings: PI / Annexin-V co-staining
Procedure: (§1) Apoptosis analysis was conducted by flow-cytometry. Briefly, target cells were first treated then washed. Treated cells were then re-suspended in Annexin-V staining buffer prior to staining with Annexin-V and propidium iodine (PI). Fifteen minutes later, cells were washed prior to analysis using BD FACS™ Diva on CANTOII™.

4T1 breast cancer cells = assay: Apoptosis analysis by flow cytometry; type: cell-based; settings: 190 μM, 4T-1
Procedure: as §1

[2] = system: CT-26 colon carcinoma cells; assay: Apoptosis analysis by flow cytometry; type: cell-based; settings: 190 μM
Procedure: as §1

EL4 cells [3] = assay: Endosomal escape: Cytochrome C apoptosis assay; type: cell-based, mouse; settings: 47 μM
EL4 cells [4] = assay: Endosomal escape: CCF4-AM / β-lactamase FRET assay; type: cell-based, mouse; settings: co-incubated with β-lactamase vs β-lactamase alone
EL4 lymphoma cells [5] = assay: MitoSOX staining of ROS production; type: cell-based, mouse; settings: EC50 dose, up to 8 h
EL4 lymphoma = assay: EL4 tumor model in mice; type: in vivo, mouse
Procedure: Female C57BL/6 mice (n=10/group) received a SC injection of 5×10^5 EL4 cells at Day 0. […] For all depletion studies, antibodies were injected via the intraperitoneal route at days 0, 3 and 6 at a concentration of 200 μg/injection. Tumor size and animal survival for all of the above listed in vivo studies was followed thereafter using a digital caliber until reaching endpoints (ulceration or a tumor volume ≥1000 mm^3).

[6] = system: wild-type MSC and B3Z reporter system; assay: Antigen cross-presentation, wild-type MSC and B3Z reporter system; settings: 20 μM
[7] = Stability testing (impurities by HPLC); type: physicochemical
Description: GMP synthesis of the CDCA-C-SV40 monomer yielded a white powder and the results of initial stability testing is summarized below:
As shown above, two main impurities were detected by HPLC relating to the reactivity of the free thiol group of the CDCA-C-SV40 monomer, namely impurities resulting from oxidation of the thiol group (Impurity A) and the formation an intermolecular disulfide bond via the thiol groups of two CDCA-C-SV40 monomers, producing a (CDCA-C-SV40)2 dimer (Impurity B).
To attempt to improve stability, the synthesis protocol of CDCA-C-SV40 was modified to produce the conjugate directly in its dimerized form (Impurity B). […] At 25° C., total impurities rose only slightly from 1.6% at Day 0 to 2.1% after 3 months. At 40° C., total impurities rose from 1.6% at Day 0 to 1.7% after 5 days, 2.4% after 10 days, and to 3.7% after 30 days.

Structure (SMILES): CC(C)[C@H](NC(=O)[C@H](CCCCN)NC(=O)[C@H](CCCNC(=N)N)NC(=O)[C@H](CCCCN)NC(=O)[C@H](CCCCN)NC(=O)[C@H](CCCCN)NC(=O)[C@@H]1CCCN1C(=O)CNC(=O)[C@H](Cc1ccc(O)cc1)NC(=O)CNC(=O)[C@H](CS)NC(=O)CC[C@@H](C)[C@H]1CC[C@H]2[C@@H]3[C@H](O)C[C@@H]4C[C@H](O)CC[C@]4(C)[C@H]3C[C@H](O)[C@]12C)C(=O)NCC(=O)NCC(=O)O [CA-C-SV40] (Cholyl-CGYGPKKKRKVGG-OH)
- necrotic cells (PI+/Annexin V−) (EL4 lymphoma cells [1]): no necrotic cells
- time to complete death (EL4 lymphoma cells [1]): 8 h
- cell death through apoptosis (Annexin V staining) (4T1 breast cancer cells): triggers cell death through apoptosis
- cell death through apoptosis (Annexin V staining) [2]: triggers cell death through apoptosis
- cell death (EL4 cells [3]; before combination with cytochrome C): 29%
- cell death (EL4 cells [3]; combined with recombinant cytochrome C): 61%
- CCF4 FRET signal (endosomal escape) (EL4 cells [4]): change in CCF4-emitted signal
- ROS production (MitoSOX signal) (EL4 lymphoma cells [5]): time-dependent ROS production
- antitumoral response in combination with ICIs (EL4 lymphoma; highest dose daily, with anti-PD-1 or anti-CTLA4): significantly enhanced the antitumoral response
- tumor growth (EL4 lymphoma; highest tested dose (190 μM), every 48 h, total of 5 injections): significantly delayed tumor growth
- effect on tumor growth and survival (EL4 lymphoma; mice depleted in NK cells): maintained the effect
- inhibitory effect on tumor growth and survival (EL4 lymphoma; mice depleted of CD4 T cells): even more so
- inhibitory effect on tumor growth and survival (EL4 lymphoma; mice depleted of CD8 T cells): diminished
- tumor growth and survival, second study (EL4 lymphoma; once every 24 h, total of 6 injections, with or without checkpoint inhibitors): delayed tumor growth and increased survival
- tumor growth compared to controls, second study (EL4 lymphoma; once every 48 h, total of 6 injections): strikingly reduced

Structure (SMILES): CSCC[C@H](NC(=O)[C@@H]1CCCN1C(=O)CNC(=O)[C@H](Cc1ccccc1)NC(=O)[C@H](CC(N)=O)NC(=O)[C@H](CO)NC(=O)[C@H](CSSC[C@H](NC(=O)CC[C@@H](C)[C@H]1CC[C@H]2[C@@H]3[C@H](O)C[C@@H]4C[C@H](O)CC[C@]4(C)[C@H]3C[C@H](O)[C@]12C)C(=O)N[C@@H](CO)C(=O)N[C@@H](CC(N)=O)C(=O)N[C@@H](Cc1ccccc1)C(=O)NCC(=O)N1CCC[C@H]1C(=O)N[C@@H](CCSC)C(=O)N[C@@H](CCCCN)C(=O)NCC(=O)NCC(=O)N[C@@H](CC(N)=O)C(=O)N[C@@H](Cc1ccccc1)C(=O)NCC(=O)NCC(=O)N[C@@H](CCCNC(=N)N)C(=O)N[C@@H](CO)C(=O)N[C@@H](CO)C(=O)NCC(=O)N1CCC[C@H]1C(=O)N[C@@H](Cc1ccc(O)cc1)C(=O)O)NC(=O)CC[C@@H](C)[C@H]1CC[C@H]2[C@@H]3[C@H](O)C[C@@H]4C[C@H](O)CC[C@]4(C)[C@H]3C[C@H](O)[C@]12C)C(=O)N[C@@H](CCCCN)C(=O)NCC(=O)NCC(=O)N[C@@H](CC(N)=O)C(=O)N[C@@H](Cc1ccccc1)C(=O)NCC(=O)NCC(=O)N[C@@H](CCCNC(=N)N)C(=O)N[C@@H](CO)C(=O)N[C@@H](CO)C(=O)NCC(=O)N1CCC[C@H]1C(=O)N[C@@H](Cc1ccc(O)cc1)C(=O)O [(CA-C-hnRNPA1)2] (I: Cholyl-CSNFGPMKGGNFGGRSSGPY-OH / II: Cholyl-CSNFGPMKGGNFGGRSSGPY-OH; disulfide I:1-II:1)
- antigen presentation compared with fresh CA-C-hnRNPA1 monomer [6]: comparable antigen presentation activity

Structure (SMILES): CC(C)[C@H](NC(=O)[C@H](CCCCN)NC(=O)[C@H](CCCNC(=N)N)NC(=O)[C@H](CCCCN)NC(=O)[C@H](CCCCN)NC(=O)[C@H](CCCCN)NC(=O)[C@@H]1CCCN1C(=O)CNC(=O)[C@H](Cc1ccc(O)cc1)NC(=O)CNC(=O)[C@H](CS)NC(=O)CC[C@@H](C)[C@H]1CC[C@H]2[C@@H]3[C@H](O)C[C@@H]4C[C@H](O)CC[C@]4(C)[C@H]3CC[C@]12C)C(=O)NCC(=O)NCC(=O)O [CDCA-C-SV40] (Chenodeoxycholyl-CGYGPKKKRKVGG-OH)
- Impurity A (Thiol oxidation) ([7]; Day 0): 1.24%
- Impurity B (Intermolecular disulfide bond) ([7]; Day 0): 2.12%
- Purity ([7]; Day 0): 94.53%
- Impurity A (Thiol oxidation) ([7]; Day 5 (5° C.)): 2.66%
- Impurity B (Intermolecular disulfide bond) ([7]; Day 5 (5° C.)): 2.45%
- Purity ([7]; Day 5 (5° C.)): 91.38%
- Impurity A (Thiol oxidation) ([7]; Day 5 (25° C.)): 6.14%
- Impurity B (Intermolecular disulfide bond) ([7]; Day 5 (25° C.)): 4.75%
- Purity ([7]; Day 5 (25° C.)): 84.52%

Structure (SMILES): CSCC[C@H](NC(=O)[C@@H]1CCCN1C(=O)CNC(=O)[C@H](Cc1ccccc1)NC(=O)[C@H](CC(N)=O)NC(=O)[C@H](CO)NC(=O)[C@H](CSSC[C@H](NC(=O)CC[C@@H](C)[C@H]1CC[C@H]2[C@@H]3[C@H](O)C[C@@H]4C[C@H](O)CC[C@]4(C)[C@H]3CC[C@]12C)C(=O)N[C@@H](CO)C(=O)N[C@@H](CC(N)=O)C(=O)N[C@@H](Cc1ccccc1)C(=O)NCC(=O)N1CCC[C@H]1C(=O)N[C@@H](CCSC)C(=O)N[C@@H](CCCCN)C(=O)NCC(=O)NCC(=O)N[C@@H](CC(N)=O)C(=O)N[C@@H](Cc1ccccc1)C(=O)NCC(=O)NCC(=O)N[C@@H](CCCNC(=N)N)C(=O)N[C@@H](CO)C(=O)N[C@@H](CO)C(=O)NCC(=O)N1CCC[C@H]1C(=O)N[C@@H](Cc1ccc(O)cc1)C(=O)O)NC(=O)CC[C@@H](C)[C@H]1CC[C@H]2[C@@H]3[C@H](O)C[C@@H]4C[C@H](O)CC[C@]4(C)[C@H]3CC[C@]12C)C(=O)N[C@@H](CCCCN)C(=O)NCC(=O)NCC(=O)N[C@@H](CC(N)=O)C(=O)N[C@@H](Cc1ccccc1)C(=O)NCC(=O)NCC(=O)N[C@@H](CCCNC(=N)N)C(=O)N[C@@H](CO)C(=O)N[C@@H](CO)C(=O)NCC(=O)N1CCC[C@H]1C(=O)N[C@@H](Cc1ccc(O)cc1)C(=O)O [(CDCA-C-hnRNPA1)2] (I: Chenodeoxycholyl-CSNFGPMKGGNFGGRSSGPY-OH / II: Chenodeoxycholyl-CSNFGPMKGGNFGGRSSGPY-OH; disulfide I:1-II:1)
- antigen presentation compared with fresh CA-C-hnRNPA1 monomer [6]: comparable antigen presentation activity
